According to patent publication US20040029185:

How the values were obtained:
TBX2 (Homo sapiens) [1] = biological target: T1, TBX2 (Homo sapiens) (UniProt Q13207); experiment: competition with a labelled probe; conditions: cold oligo competes the SEQ ID NO: 4 shift; protein in a lysate after overexpression
T1 sequence (looked up): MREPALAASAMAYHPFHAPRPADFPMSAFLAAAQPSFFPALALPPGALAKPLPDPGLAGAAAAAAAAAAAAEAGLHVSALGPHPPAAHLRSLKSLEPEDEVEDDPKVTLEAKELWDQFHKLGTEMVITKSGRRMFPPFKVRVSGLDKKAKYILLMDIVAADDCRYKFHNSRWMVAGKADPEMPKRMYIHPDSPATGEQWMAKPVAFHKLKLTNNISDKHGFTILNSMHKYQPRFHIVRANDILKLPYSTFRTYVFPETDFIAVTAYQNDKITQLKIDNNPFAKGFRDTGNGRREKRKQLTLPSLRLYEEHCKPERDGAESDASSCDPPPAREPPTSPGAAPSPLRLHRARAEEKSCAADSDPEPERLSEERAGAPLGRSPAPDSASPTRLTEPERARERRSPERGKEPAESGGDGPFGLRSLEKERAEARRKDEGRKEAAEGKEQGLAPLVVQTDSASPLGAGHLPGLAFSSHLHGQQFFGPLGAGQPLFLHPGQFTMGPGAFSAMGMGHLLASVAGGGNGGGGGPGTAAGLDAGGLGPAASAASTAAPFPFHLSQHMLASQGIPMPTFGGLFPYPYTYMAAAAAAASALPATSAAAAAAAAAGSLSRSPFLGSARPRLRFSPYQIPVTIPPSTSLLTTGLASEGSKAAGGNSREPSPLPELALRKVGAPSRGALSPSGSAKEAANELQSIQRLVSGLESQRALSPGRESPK

TBX2 (Homo sapiens) [2] = biological target: T1, TBX2 (Homo sapiens); experiment: EMSA; conditions: protein in a lysate after overexpression, label: 32P
[3] = biological target: T2, TBX2 (transfected) (Homo sapiens) (UniProt Q13207); experiment: activity in cells; conditions: strong dose-dependent repression of reporter in Cos-7; protein in cells
T2 sequence (looked up): T1 sequence (looked up)

CAGTTAAGGGGGCAGGAGTGGCGCTGCTCACCTCTGGTGCCAAAGGGCGG (double strand) [ARF promoter 50-mer]
binding result (TBX2 (Homo sapiens) [1]): binds

CTGCTCACCTCTGGTGCCAAA (double strand) [ARF promoter T-site-like oligo]
binding result (TBX2 (Homo sapiens) [2]; supershifted by anti-TBX2 antibodies, competed by cold oligo): binds

CTGCTTGACTCTAAGTCCAAA (double strand) [mutant ARF T-site oligo]
binding result (TBX2 (Homo sapiens) [2]; no shift or supershift with labeled mutant, no competition as cold oligo, variant of ARF promoter T-site-like oligo): no binding

TCTGCAGTTAAGGGGGCAGGAGTGGCGCTGCTCACCTCTGGTGCCAAAGGGCGGCGCAGCGGCTGCCGAGCTC (double strand) [human ARF promoter -19 to +54 (CAT reporter)]
activity on this sequence [3]: active

For some of these results: At least one result comes from cells or an extract, where the contact may be indirect. For some of these results: No signal at the amounts used counts as a negative. Tags and fusion partners may be left off the protein sequences shown.
